Results reported in the supplement of paper PMC10735217.
Some of the results follow. This data set is noisy: repeats of one test often differ as much as different tests do.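 The human kidney-derived cells carry a stably integrated construct of eight TEAD-binding elements driving luciferase, read by luminescence in a drug-repurposing library screen. A compound counts as a hit when its signal is more than five robust Z scores above the plate mean.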

Tested on: HEK293A TEAD-LUC reporter
Experiment: TEAD-luciferase reporter activity (YAP activation), robust Z score vs plate; higher = stronger YAP/TEAD activation
Conditions: 24 h

| SMILES | TEAD-luciferase reporter activity (compound concentration: 200 nM) | TEAD-luciferase reporter activity (compound concentration: 2 uM) | TEAD-luciferase reporter activity (compound concentration: 10 uM) |
| --- | --- | --- | --- |
| Cc1c(Br)c(=O)n(C2CCCC2)c2nc(Nc3ccc(N4CCN(C)CC4)cc3)ncc12 | inactive: -0.515 | inactive: -0.871 | inactive: 0.741 |
| CCN1CCC(c2cc(C)c3nc(-c4cc5c(C)nc(C)cn5n4)cc(=O)n3c2)CC1 | inactive: 0.554 | – | inactive: -2.06 |
| C[C@]1(Cn2ccnn2)[C@H](C(=O)O)N2C(=O)C[C@H]2S1(=O)=O [Tazobactam] | inactive: 1.09 | inactive: -1.08 | inactive: -0.848 |
| CCN(CC)Cc1ccc(Nc2ccnc3cc(Cl)ccc23)cc1O | inactive: -0.0856 | inactive: 0.517 | inactive: -0.918 |
| C[C@@H](/N=C(\NC#N)Nc1ccc(C#N)cc1)C(C)(C)C | inactive: -0.737 | inactive: 3.55 | inactive: -1.31 |
| C[C@@H](Sc1nc(N)cc(Cl)n1)c1cc2ccoc2cn1 | inactive: 0.882 | inactive: -1.78 | inactive: 4.33 |
| C[C@@H](N1CCN(c2ccc(-n3cnnn3)cc2)C1=O)[C@](O)(Cn1cncn1)c1ccc(F)cc1F | inactive: -1.6 | inactive: -0.237 | inactive: 0.288 |
| CC(=O)Oc1cccc(C)c1 | inactive: -0.128 | inactive: -1.48 | inactive: 2.94 |
| CC(C)c1ccc(C(=O)N(C)CCN2CCN(c3cccc4ccoc34)CC2)cc1 [befiperide] | inactive: -1.24 | inactive: -0.269 | inactive: 2.48 |
| C[C@@H]1CC2C3CCC4=CC(=O)C=CC4(C)C3=CCC2(C)[C@@]1(O)C(=O)CO (some centres undefined) | inactive: -0.131 | inactive: 1.07 | inactive: 0.416 |
| Cn1cnc2c1c(=O)n(CC(=O)O)c(=O)n2C | inactive: 1.38 | inactive: -0.844 | inactive: -0.411 |
| CC(CN1CCCC1)C(=O)c1ccc(C(F)(F)F)cc1 (centres undefined) | inactive: -1.09 | inactive: -0.299 | inactive: -0.37 |
| Cc1ccccc1N1C(=O)c2cc(S(N)(=O)=O)c(Cl)cc2NC1C (centres undefined) [metolazone] | inactive: -0.449 | inactive: 0.00937 | inactive: 1.32 |
| Nc1ccc(S(=O)(=O)NC(=O)c2ccccc2)cc1 | inactive: -0.466 | inactive: -0.423 | inactive: 1.45 |
| Cc1ccc(Oc2ccccc2-c2csc(N=C3NCCCN3)n2)c(C)c1 [Abafungin] | inactive: 0.49 | inactive: 1.01 | inactive: 0.443 |
| NS(=O)(=O)Cc1noc2ccccc12 [zonisamide] | – | inactive: 0.968 | – |
| NS(=O)(=O)Cc1noc2ccccc12 [Zonisamide] | inactive: -0.076 | – | inactive: -0.945 |
| Nc1ccc(C(=O)O)c(O)c1 [4-aminosalicylic acid, Block] | inactive: 3.94 | inactive: -2.17 | inactive: -0.0803 |
| O=C(C(=O)N1CCn2nc(-c3ccc(F)cc3)c(-c3ccncc3)c2N1)c1ccccc1 | inactive: -1.77 | inactive: -1.46 | inactive: 1.19 |
| C[C@H](N)C(=O)N[C@@H](CCC(N)=O)C(=O)N1CCC[C@H]1C(=O)N[C@@H](Cc1ccc(O)cc1)C(=O)N1CCC[C@H]1C(=O)N[C@@H](CCC(N)=O)C(=O)NCC(=O)N[C@@H](CC(N)=O)C(=O)N[C@@H](Cc1c[nH]cn1)C(=O)N[C@@H](CCC(=O)O)C(=O)N[C@@H](C)C(=O)N[C@@H](CO)C(=O)N[C@@H](Cc1ccc(O)cc1)C(=O)NCC(=O)O | inactive: -0.83 | inactive: 0.779 | inactive: -0.108 |
| CC(=O)OC[C@H]1O[C@@H](n2cc(F)c(=O)[nH]c2=O)C[C@@H]1OC(C)=O | inactive: -0.85 | inactive: -1.1 | inactive: 0.397 |
| CCn1c(=O)c2c(nc(/C=C/c3ccc(OC)c(OC)c3)n2C)n(CC)c1=O [Istradefylline] | inactive: -1.11 | inactive: -0.0211 | inactive: 1.81 |
| COCC1=C(C(=O)O)N2C(=O)[C@@H](NC(=O)/C(=N\O)c3csc(N)n3)[C@H]2SC1 | inactive: 1.17 | inactive: -0.959 | inactive: 0.3 |
| CCOCOC[C@H](C[C@H](C)C(=O)NO)NC(=O)c1ccc(Oc2ccccc2)cc1 | inactive: 0.809 | inactive: -1.81 | inactive: 0.836 |
| N=C(N)NCCC[C@H](N)C(=O)NCC(=O)N[C@@H](CC(=O)O)C(=O)N[C@@H](CO)C(=O)O | inactive: 1.6 | inactive: 2.5 | inactive: 1.37 |
| C[C@H](NCCc1ccc(O)cc1)[C@H](O)c1ccc(O)cc1 [ritodrine] | inactive: -1.92 | inactive: -1.84 | active: 6.95 |

Complete entries from above.
Cn1cnc2c1c(=O)n(CC(=O)O)c(=O)n2C in the list: TEAD-luciferase reporter activity (compound concentration: 200 nM): inactive: 1.38; TEAD-luciferase reporter activity (compound concentration: 2 uM): inactive: -0.844; TEAD-luciferase reporter activity (compound concentration: 10 uM): inactive: -0.411
C[C@@H]1CC2C3CCC4=CC(=O)C=CC4(C)C3=CCC2(C)[C@@]1(O)C(=O)CO (some centres undefined) in the list: TEAD-luciferase reporter activity (compound concentration: 200 nM): inactive: -0.131; TEAD-luciferase reporter activity (compound concentration: 2 uM): inactive: 1.07; TEAD-luciferase reporter activity (compound concentration: 10 uM): inactive: 0.416
